PubChem BioAssay AID1259308, NCATS | 2017
This is one part, drawn at random, of about 59,000 reagents. About 1,510 of them (2.6%) count as active. 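Calls use total luciferase alone and ignore viability, so some active siRNAs may act by altering cell number.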 Entries without a mark were called inactive. The numbers tell different reagents against one gene apart. Not all columns of the deposit are shown.

Screen: 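Knock-downs that increase output of a recombinant reporter protein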 (primary screen)
System: human HEK293 embryonic kidney cells stably expressing firefly luciferase (HEK-CMV-Luc2-Hygro)
Reagents: single siRNA against human genes, 0.8 pmol siRNA per well
Timing: 72 h
Read-out: 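Reporter luminescence and viable-cell signal on separate replicate plates, given as percent of non-targeting control and median/MAD z-scores, plus per-cell luciferase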
Reading the numbers: total luciferase, z-score and total luciferase, % of control: higher = more reporter protein produced; luciferase per cell, z-score: higher = more reporter output per viable cell
Hit rule: 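Active when the median/MAD z-score for overall luciferase is greater than 3; a gene was taken forward for validation with new siRNAs if at least two of its three siRNAs passed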
Meaning of the calls: active = raised luciferase; inactive = no rise

Gene	reagent	total luciferase, z-score	total luciferase, % of control	luciferase per cell, z-score
SLC9A2	1	0.691	95.6	0.306
SLC9A2	2	-0.478	72.4	-1.04
SLC9A2	3	0.735	96.5	0.151
RXRG	1	0.328	88.4	0.186
RXRG	2	-1.4	54	-0.665
RXRG	3	0.31	88	-0.384
PIGH	1	1.21	106	1.11
PIGH	2	-0.802	65.9	-0.878
PIGH	3	-0.117	79.6	0.311
ECHDC1	1	1.03	102	0.193
ECHDC1	2	0.874	99.3	-0.0184
ECHDC1	3	0.576	93.3	0.39
CIT	1	-1.48	52.5	-1.38
CIT	2	-0.236	77.2	-0.25
CIT	3	-0.251	76.9	-0.0106
FAM171A1	1	-0.0661	80.6	1.1
FAM171A1	2	-0.317	75.6	-0.721
FAM171A1	3	1.14	105	0.971

Entries above whose gene name starts with R or r (3):
Gene	reagent	total luciferase, z-score	total luciferase, % of control	luciferase per cell, z-score
RXRG	1	0.328	88.4	0.186
RXRG	2	-1.4	54	-0.665
RXRG	3	0.31	88	-0.384

More reagents follow.
Gene	reagent	total luciferase, z-score	total luciferase, % of control	luciferase per cell, z-score
ADAMTS13	1	1.75	117	2.24
ADAMTS13	2	-0.199	77.9	-0.18
ADAMTS13	3	0.115	84.2	-0.292
CENPT	1	1.41	110	2.43
CENPT	2	0.235	86.6	0.561
CENPT	3	0.471	91.2	0.384
MPV17	1	0.221	86.3	-0.107
MPV17	2	-0.864	64.7	-0.47
MPV17	3	-0.167	78.6	0.895
RAB26	1	0.287	87.6	1.13
RAB26	2	-0.694	68.1	-1.02
RAB26	3	-0.342	75.1	-0.329
C14orf93	1	0.39	89.6	0.422
C14orf93	2	0.237	86.6	0.0204
C14orf93	3	-0.881	64.4	-0.517
CNPY2	1	0.817	98.1	0.129
CNPY2	2	0.338	88.6	0.476
CNPY2	3	0.145	84.8	-0.577
NEURL3	1	-0.0898	80.1	-0.271
NEURL3	2	0.729	96.4	0.93
NEURL3	3	-0.352	74.9	0.254
